Data source: PubChem BioAssay AID1671195 (Yale University, 2021)

- Test: 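Knockdowns that increase or decrease uptake of fluorescent LDL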 (primary screen)
- System: human Huh7 hepatoma cells
- Reagent: siRNA pool against human genes, 18 nM
- Time to read-out: about 2 to 2.5 days of knockdown, then 8 h LDL uptake
- Treatment: DiI-labelled LDL at 30 µg/ml for 8 h, in lipoprotein-deficient serum medium
- Measurement: 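Fluorescent LDL signal imaged in cells, scaled to the plate median, robust z-score for each replicate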
- Reading the numbers: robust z-score: higher = more LDL uptake after knockdown
- Hit rule: 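a gene counts as active if at least two replicate z-scores exceed ±2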
The deposit covers about 22,000 reagents; below is a part drawn at random. About 1,510 of all reagents (6.9%) were called active. 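Active includes knockdowns raising or lowering LDL uptake; positive z-scores mean more uptake, negative mean less.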

CALD1 (caldesmon 1) | robust z-score, replicate 1 = -0.975; robust z-score, replicate 2 = 0.0152; robust z-score, replicate 3 = -1.06; Call = inactive
RPL7AP53 (ribosomal protein L7a pseudogene 53) | robust z-score, replicate 1 = -0.37; robust z-score, replicate 2 = -0.962; robust z-score, replicate 3 = -0.777; Call = inactive
CCNF (cyclin F) | robust z-score, replicate 1 = -0.125; robust z-score, replicate 2 = 1.13; robust z-score, replicate 3 = 0.0528; Call = inactive
COG3 (component of oligomeric golgi complex 3) | robust z-score, replicate 1 = 0.0373; robust z-score, replicate 2 = -0.633; robust z-score, replicate 3 = 0.506; Call = inactive

2 entries from above, set out differently:
| target gene | robust z-score, replicate 1 | robust z-score, replicate 2 | robust z-score, replicate 3 | Call |
| --- | --- | --- | --- | --- |
| CALD1 (caldesmon 1) | -0.975 | 0.0152 | -1.06 | inactive |
| RPL7AP53 (ribosomal protein L7a pseudogene 53) | -0.37 | -0.962 | -0.777 | inactive |

The results go on.
REST (RE1 silencing transcription factor) | robust z-score, replicate 1 = -0.869; robust z-score, replicate 2 = -0.553; robust z-score, replicate 3 = -0.589; Call = inactive
MED18 (mediator complex subunit 18) | robust z-score, replicate 1 = 0.878; robust z-score, replicate 2 = -0.225; robust z-score, replicate 3 = 4; Call = inactive
LOC389425 (retired record) | robust z-score, replicate 1 = 0.733; robust z-score, replicate 2 = 0.381; robust z-score, replicate 3 = 0.558; Call = inactive
DYRK2 (dual specificity tyrosine phosphorylation regulated kinase 2) | robust z-score, replicate 1 = 2.16; robust z-score, replicate 2 = 1.07; robust z-score, replicate 3 = 0.23; Call = inactive
ANKRD36 (ankyrin repeat domain 36) | robust z-score, replicate 1 = 0.913; robust z-score, replicate 2 = 1.06; robust z-score, replicate 3 = 0.665; Call = inactive
LOC388923 (retired record) | robust z-score, replicate 1 = 0.152; robust z-score, replicate 2 = 0.724; robust z-score, replicate 3 = 0.475; Call = inactive
H1-10 (H1.10 linker histone) | robust z-score, replicate 1 = 1.67; robust z-score, replicate 2 = 0.197; robust z-score, replicate 3 = 0.0742; Call = inactive
LOC387833 (retired record) | robust z-score, replicate 1 = -0.382; robust z-score, replicate 2 = -0.454; robust z-score, replicate 3 = -0.471; Call = inactive
